The text below walks through data of PMC4414150, “Zfra activates memory Hyal-2+ CD3− CD19− spleen cells to block cancer growth, stemness, and metastasis in vivo” (Oncotarget, 2015).

These are yes or no findings as the source states them, for the method shown. In cells and extracts the contact can be indirect. A result given as binding can be weak or reduced; the word gives no strength.

The assay has as its target T1, DsRed-Zfra.
T1 sequence: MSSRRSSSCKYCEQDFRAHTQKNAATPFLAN
Put plainly: FRET or BRET; FRET microscopy (FRETc) in COS7 fibroblasts co-transfected with EGFP and DsRed constructs. On the technique in general: In BRET a luciferase serves as donor, and the signal depends on an acceptor being close.

EGFP-Hyal-2: the binding entry is “binds”.
